Data reported in paper PMC2785718, “Structure/function studies of dogfish α-crystallin, comparison with bovine α-crystallin” (Molecular Vision, 2009).
These are yes or no findings as the source states them, for the method shown. Some entries that bind do so weakly or less than the wild type.

Molecular target: T1, dogfish αB-crystallin (spiny dogfish (endogenous in lens)) (UniProt P02512)
T1 sequence: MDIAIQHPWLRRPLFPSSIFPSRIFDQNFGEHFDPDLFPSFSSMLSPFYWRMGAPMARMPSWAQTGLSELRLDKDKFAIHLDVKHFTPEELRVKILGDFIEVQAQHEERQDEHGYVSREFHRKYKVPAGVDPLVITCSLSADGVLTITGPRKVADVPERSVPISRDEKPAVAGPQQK
Experiment: AUC; sedimentation velocity of the isolated native α-crystallin; both purified

binding: binds
B1: dogfish αA-crystallin (natural protein, spiny dogfish (endogenous in lens), UniProt P02509 1-177, looked up)
chain: MDLAIQYPWFRRSLGSFYPSRLFDQFFGEGLFDYDLFPFFSSTISPYYRQSVFRNFLDSGISEVRSEKDRFMINLNVKHFSPEELSVKIVDDYVEIHGKHAERQEDQGRVSREFHRTYHLPSNLNESAIACSLSNEGLLTLCCPKTRPGDDSNWQDRPIPVSREEKQGTQPEIRADP
notes: αA-crystallin polypeptide of spiny dogfish lens α-crystallin; native subunit, not separated from αB-crystallin; tryptophan at positions 9 and 154; Native polypeptide from lens; also called αA chain; αA-crystallin subunit
